The source of these data is the supplement of paper PMC10849652.

The chains behind the UniProt entries cited, without tags or fusion partners. Where a name states a change or a piece, a line headed by the entry shows the natural chain unless it says otherwise.
UniProt Q9NP77: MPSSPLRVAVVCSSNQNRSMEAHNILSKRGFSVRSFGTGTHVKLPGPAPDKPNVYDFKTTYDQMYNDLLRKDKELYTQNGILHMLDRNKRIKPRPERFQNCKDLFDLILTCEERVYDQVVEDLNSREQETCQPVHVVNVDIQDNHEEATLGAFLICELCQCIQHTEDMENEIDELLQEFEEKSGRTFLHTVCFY
UniProt O60225: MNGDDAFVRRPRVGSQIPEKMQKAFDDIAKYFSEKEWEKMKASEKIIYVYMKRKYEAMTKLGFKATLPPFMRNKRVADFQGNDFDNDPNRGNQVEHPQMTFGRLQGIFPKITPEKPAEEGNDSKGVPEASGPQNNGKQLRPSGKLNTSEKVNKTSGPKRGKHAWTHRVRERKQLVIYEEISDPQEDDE
UniProt Q9BUA3: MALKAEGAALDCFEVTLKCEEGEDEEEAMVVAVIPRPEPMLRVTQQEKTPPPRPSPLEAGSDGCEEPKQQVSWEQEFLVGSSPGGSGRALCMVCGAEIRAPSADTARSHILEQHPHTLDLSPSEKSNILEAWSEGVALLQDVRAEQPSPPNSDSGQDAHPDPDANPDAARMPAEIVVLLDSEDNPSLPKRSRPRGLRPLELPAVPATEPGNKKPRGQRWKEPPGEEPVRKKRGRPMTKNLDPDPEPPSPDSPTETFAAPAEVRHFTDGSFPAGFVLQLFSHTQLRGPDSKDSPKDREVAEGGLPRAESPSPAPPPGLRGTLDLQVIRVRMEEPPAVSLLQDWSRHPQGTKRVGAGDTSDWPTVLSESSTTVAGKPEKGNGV
UniProt P10124: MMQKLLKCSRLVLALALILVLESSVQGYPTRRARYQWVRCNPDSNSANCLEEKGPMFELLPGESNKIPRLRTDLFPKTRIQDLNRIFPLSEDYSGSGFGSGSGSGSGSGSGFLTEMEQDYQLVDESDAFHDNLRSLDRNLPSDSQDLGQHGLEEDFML
UniProt P16150: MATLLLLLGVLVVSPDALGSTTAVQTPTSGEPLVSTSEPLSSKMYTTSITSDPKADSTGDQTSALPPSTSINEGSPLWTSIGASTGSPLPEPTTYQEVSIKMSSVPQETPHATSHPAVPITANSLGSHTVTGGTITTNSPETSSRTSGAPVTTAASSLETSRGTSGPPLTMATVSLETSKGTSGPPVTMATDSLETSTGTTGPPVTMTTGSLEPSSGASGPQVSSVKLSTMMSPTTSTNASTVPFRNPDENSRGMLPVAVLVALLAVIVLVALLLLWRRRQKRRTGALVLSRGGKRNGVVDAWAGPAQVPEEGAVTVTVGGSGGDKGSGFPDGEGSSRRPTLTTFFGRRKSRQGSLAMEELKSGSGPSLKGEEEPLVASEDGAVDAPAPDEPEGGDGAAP
UniProt Q11206: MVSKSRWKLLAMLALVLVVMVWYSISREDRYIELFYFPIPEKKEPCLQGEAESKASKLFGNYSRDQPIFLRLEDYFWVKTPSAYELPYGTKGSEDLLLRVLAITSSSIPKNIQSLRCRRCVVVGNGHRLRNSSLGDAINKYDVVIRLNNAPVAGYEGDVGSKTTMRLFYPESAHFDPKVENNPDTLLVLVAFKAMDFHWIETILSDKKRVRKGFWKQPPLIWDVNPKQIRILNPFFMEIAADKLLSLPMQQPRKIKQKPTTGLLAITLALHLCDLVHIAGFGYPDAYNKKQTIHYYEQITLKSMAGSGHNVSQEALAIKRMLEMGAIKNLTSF

Holding throughout (assay): log2 fold change, soluble protein after heating vs DMSO (PISA); higher = thermal stabilisation; K562 lysate, 10 uM; active = over 0.2 and 3.5 SD of the protein, either way, in both replicates (recomputed)
Compound in experiment [1]: CCCS(=O)(=O)Nc1ccc(F)c(C(=O)c2c[nH]c3ncc(-c4ccc(Cl)cc4)cc23)c1F [vemurafenib]
Summed up:
(§1)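 To prepare the extract, K562 pellets were dounce-homogenised in PBS pH 7.4 with 1 mM MgCl2, giving crude material at 1 mg/mL protein. This was treated with 10 μM compound for 30 min, then heated in aliquots for 3 min over 48°C-58°C before pooling and addition of NP-40 to 0.5% at 4°C. Centrifugation at 21,000xg for 90 min left soluble protein in the supernatant, which TMTpro 16plex LC-MS/MS quantified with equalised channel sums. Results are log-two fold changes in thermal stability compared with solvent controls, from duplicates.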

Compound in experiment [2]: CCN(CCCOc1ccc2c(Nc3cc(CC(=O)Nc4cccc(F)c4)[nH]n3)ncnc2c1)CCOP(=O)(O)O [barasertib]
Summed up: as §1

Compound in experiment [3]: CC[C@@H]1C(=O)N(C)c2cnc(Nc3ccc(C(=O)NC4CCN(C)CC4)cc3OC)nc2N1C1CCCC1
Summed up:
as §1

Compound in experiment [4]: CN1CCN(c2nc(C3=C(c4c[nH]c5ccccc45)C(=O)NC3=O)c3ccccc3n2)CC1 [sotrastaurin]
A digest of the protocol: as §1

Compound in experiment [5]: CNC(=O)c1ccc(Nc2ncc(C(F)(F)F)c(NCc3nccnc3N(C)S(C)(=O)=O)n2)cc1 [defactinib]
A digest of the protocol:
as §1

Compound in experiment [6]: COC(=O)N[C@@H](C)CNc1nccc(-c2cn(C(C)C)nc2-c2cc(Cl)cc(NS(C)(=O)=O)c2F)n1 [encorafenib]
Summed up:
as §1

Compound in experiment [7]: COC(=O)[C@H](CCSC)NC(=O)C1=C(C=C(C=C1)NC[C@H](CS)N)C2=CC=CC=C2
Summed up: as §1

Compound in experiment [8]: CCCS(=O)(=O)Nc1ccc(F)c(C(=O)c2c[nH]c3ncc(Cl)cc23)c1F
A digest of the protocol: as §1

Compound in experiment [9]: CC[C@@H]1C(=O)N(C)c2cnc(Nc3ccc(C(=O)N[C@H]4CC[C@H](N5CCN(CC6CC6)CC5)CC4)cc3OC)nc2N1C(C)C [volasertib]
A digest of the protocol: as §1

Compound in experiment [10]: CCn1c(C(=O)N(C2CC2)C2CC2)cc2c3c(ncn3C)c(Nc3cc(C)n(C)n3)nc21
Summed up:
as §1

Compound in experiment [11]: CCn1cc(-c2ccnc3[nH]c(-c4cccc(CN(C)C)c4)cc23)c(-c2ccc(NC(=O)N(C)C)cc2)n1
A digest of the protocol: as §1

Compound in experiment [12]: CN1CCC(CNc2ccc3ncc(-c4cccc(OC(F)(F)F)c4)n3n2)CC1
Summed up: as §1

Compound in experiment [13]: CN1CCN(CCOc2cc(OC3CCOCC3)c3c(Nc4c(Cl)ccc5c4OCO5)ncnc3c2)CC1 [saracatinib]
Summed up:
as §1

Compound in experiment [14]: CN1CC[C@H](c2c(O)cc(O)c3c(=O)cc(-c4ccccc4Cl)oc23)[C@H](O)C1 [alvocidib]
Summed up:
as §1

Compound in experiment [15]: CN1CCc2c(c3ccccc3n2Cc2ccc(C(=O)NO)cc2)C1 [Tubastatin A]
A digest of the protocol:
as §1

Compound in experiment [16]: CNC(=O)C1=CC=CC=C1NC2=NC(=NC=C2Cl)NC3=C(C=C(C=C3)N4CCOCC4)OC
A digest of the protocol:
as §1

Compound in experiment [17]: CNc1nc(-c2ccc3c(N)n[nH]c3c2)cc(N2C[C@@H](C(=O)NC3CCCCC3)CC[C@H]2C)n1
Summed up:
as §1

Compound in experiment [18]: COc1cc(Nc2ncc3c(n2)-c2ccc(Cl)cc2C(c2c(F)cccc2OC)=NC3)ccc1C(=O)O [alisertib]
A digest of the protocol: as §1

Compound in experiment [19]: COc1cc2nc(-c3cc(F)ccc3O)nc(N[C@@H]3CNC[C@H]3C(C)(C)O)c2cc1OC
Summed up: as §1

Compound in experiment [20]: COc1cc2ncnc(Nc3ccc(F)c(Cl)c3)c2cc1OCCCN1CCOCC1 [gefitinib]
Summed up:
as §1

This is one part of the list.

Regarding SPTAN1 isoform 3 (UniProt Q13813), the log2 fold change is inactive: -0.062 in [1]; inactive: -0.026 in experiment [2]; inactive: 0.072 in experiment [3]; inactive: 0 in [4]; inactive: 0.001 in [5]; inactive: 0.002 in [6]. Also, the log2 fold change in experiment [7] was inactive: -0.146.

Regarding SSU72 (UniProt Q9NP77), the log2 fold change in experiment [1] was inactive: -0.018; in experiment [8], inactive: 0.001; in experiment [2], inactive: 0.018; in [3], inactive: -0.064; in experiment [9] it was inactive: -0.045; in experiment [10], inactive: -0.049. In addition, the log2 fold change in [11] is active: -0.325; in experiment [12], inactive: 0.171; in experiment [13] it was inactive: -0.001; in experiment [4], inactive: 0.018; in [14], inactive: -0.127; in [15], inactive: -0.05. For the same target, the log2 fold change in [16] was inactive: -0.035; in experiment [5], inactive: -0.026; in experiment [17], inactive: -0.032; in experiment [6], inactive: -0.04; in experiment [7] it was inactive: 0.183; in [18] it was inactive: -0.016. Besides, the values for the log2 fold change in experiment [19] and in [20] were inactive: -0.013 and inactive: -0.004, respectively.

With SSX5 isoform 2 (UniProt O60225), the log2 fold change in [1] is inactive: 0.143; in experiment [8] it was inactive: 0.062; in experiment [2], inactive: -0.065; in [3], inactive: -0.188; in experiment [9] it was inactive: 0.013; in [10] it was inactive: 0.031. Besides, the log2 fold change is active: -0.926 in experiment [11]; inactive: 0.049 in experiment [12]; inactive: -0.096 in [14]; inactive: -0.015 in experiment [15]; inactive: 0.038 in experiment [16]; inactive: -0.026 in experiment [5]. Also, the log2 fold change in experiment [6] is inactive: -0.082; in [7] it was inactive: -0.271; in experiment [18], inactive: -0.172; in experiment [19] it was inactive: -0.002; in experiment [20] it was inactive: 0.005.

On to SPINDOC (UniProt Q9BUA3), for which the log2 fold change in experiment [1] is inactive: 0.069; in [8] it was inactive: 0.056; in [2], inactive: -0.052; in experiment [3], inactive: 0.157; in [9], inactive: -0.025; in [10], inactive: -0.034. Moreover, the log2 fold change in experiment [11] was inactive: -0.07; in [12], inactive: 0.035; in experiment [13], inactive: 0.021; in [4], inactive: 0.024; in [14] it was inactive: -0.026; in [15], inactive: 0.035. The log2 fold change is inactive: 0.078 in experiment [16]; inactive: 0.016 in experiment [5]; inactive: 0.097 in experiment [17]; inactive: -0.006 in experiment [6]; inactive: 0.084 in [7]; inactive: 0.16 in experiment [18]. Also, the log2 fold change was inactive: -0.002 in [19] and inactive: -0.197 in experiment [20].

With SRGN (UniProt P10124), the log2 fold change in [1] is inactive: 0.177; in [8], inactive: 0.093; in experiment [2], inactive: -0.033; in experiment [3], inactive: 0.059; in experiment [9], inactive: -0.086; in [10] it was inactive: -0.005. Also, the log2 fold change is inactive: -0.022 in experiment [11]; inactive: 0.101 in experiment [12]; inactive: 0.043 in experiment [13]; inactive: 0.069 in [4]; active: -0.509 in experiment [14]; inactive: 0.027 in experiment [15]. Further, the log2 fold change in experiment [16] is inactive: 0.048; in experiment [5], inactive: 0.175; in experiment [17], inactive: 0.065; in experiment [6], inactive: 0.014; in experiment [7], inactive: -0.055; in experiment [19], inactive: 0.026.

For SPN (UniProt P16150), the log2 fold change in [1] is inactive: -0.012; in [8], inactive: -0.018; in experiment [2], inactive: -0.002; in experiment [3], inactive: 0.074; in [9] it was inactive: 0.034; in experiment [10], inactive: -0.012. Moreover, the log2 fold change in experiment [11] is inactive: -0.011; in experiment [12] it was inactive: 0.016; in experiment [13], inactive: -0.003; in experiment [4], inactive: 0.052; in [14], inactive: 0.018; in [15] it was inactive: 0.057. Besides, the log2 fold change in [16] was inactive: -0.03; in experiment [5], inactive: -0.017; in [17] it was inactive: 0.011; in [6], inactive: 0.011; in [7] it was inactive: -0.051; in experiment [18], inactive: 0.018. Besides, the figures for the log2 fold change in experiment [19] and in [20] were inactive: -0.005 and inactive: -0.002, respectively.

Consider ST3GAL4 isoform 4 (UniProt Q11206), for which the log2 fold change in experiment [1] is inactive: -0.051; in [2], inactive: 0.1; in experiment [3], inactive: 0.308; in [10], inactive: -0.162; in experiment [11], inactive: -0.034; in experiment [12] it was inactive: -0.152. The log2 fold change in [13] was inactive: 0.138; in [4] it was inactive: 0.046; in [14], inactive: -0.168; in experiment [15], inactive: 0.206; in experiment [16], inactive: -0.065; in experiment [5] it was inactive: 0.141. Moreover, the log2 fold change was inactive: 0.088 in experiment [17]; inactive: -0.015 in experiment [6]; inactive: 0.245 in experiment [7]; inactive: -0.294 in [18]; inactive: -0.205 in experiment [20].
